Data as given in PubChem BioAssay AID1224826 (NIAID, 2016).
This is an unselected part of about 17,000 deposited reagents. In the full data, about 1,110 (6.6%) are marked active. 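Active means lowered or raised reporter signal; replicate intensities are raw and not normalised per plate.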 The numbers tell different reagents against one gene apart. Further read-outs or replicates are left out here. No sequences are given here.

- Purpose: 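Knock-downs that raise or lower Tnf reporter signal after endotoxin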 (primary screen)
- Cell system: RAW264.7 G9 macrophages from mouse bearing reporters for p65 (GFP) and the Tnf promoter (mCherry)
- Reagent: siRNA pool against mouse genes, 100 nM
- Duration: 16 h of LPS stimulation, after 2 days of siRNA transfection
- Treatment: bacterial lipopolysaccharide (Salmonella minnesota R595), 10 ng/ml
- Read-out: 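Nuclear mCherry signal of the Tnf promoter reporter measured by imaging after background removal, scaled to each plate median and turned into robust z-scores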
- Scale: Tnf reporter robust z-score: higher = stronger Tnf promoter reporter signal after LPS
- Hit rule: 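a well counts as active at a score of -1.3 or below (Tlr4 knock-down control median) or above 3 (raised signal); controls and wells holding fewer than 50 cells are excluded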
- Meaning of the calls: active = Tnf reporter clearly lowered or raised; inactive = no clear change in Tnf reporter

| gene | reagent | Tnf reporter robust z-score | fewer than 50 cells in well | call |
| --- | --- | --- | --- | --- |
| Ndufv2 (NADH:ubiquinone oxidoreductase core subunit V2) | 1 | 0.5 | enough cells in well | inactive |
| AY074887 (cDNA sequence AY074887) | 1 | -0.85 | enough cells in well | inactive |
| Snupn (snurportin 1) | 1 | -0.12 | enough cells in well | inactive |
| Ddr1 (discoidin domain receptor family, member 1) | 1 | 0.63 | enough cells in well | inactive |
| Cfap52 (cilia and flagella associated protein 52) | 1 | -1.66 | enough cells in well | active |
| Steap1 (six transmembrane epithelial antigen of the prostate 1) | 1 | 0.75 | enough cells in well | inactive |
| Cyp2j13 (cytochrome P450, family 2, subfamily j, polypeptide 13) | 1 | -0.65 | enough cells in well | inactive |
| St3gal5 (ST3 beta-galactoside alpha-2,3-sialyltransferase 5) | 1 | 0.66 | enough cells in well | inactive |
| Srp54a (signal recognition particle 54A) | 1 | – | fewer than 50 cells per well; well left out of calls | inactive |
| Klc1 (kinesin light chain 1) | 1 | 0.05 | enough cells in well | inactive |
| Vmn1r76 (vomeronasal 1 receptor 76) | 1 | -0.13 | enough cells in well | inactive |
| Syn3 (synapsin III) | 1 | – | fewer than 50 cells per well; well left out of calls | inactive |
| Dgkz (diacylglycerol kinase zeta) | 1 | 0.05 | enough cells in well | inactive |
| Cpm (carboxypeptidase M) | 1 | -0.07 | enough cells in well | inactive |
| Psma6 (proteasome subunit alpha 6) | 1 | – | fewer than 50 cells per well; well left out of calls | inactive |
| Sytl1 (synaptotagmin-like 1) | 1 | 0.4 | enough cells in well | inactive |
| Kap (kidney androgen regulated protein) | 1 | 1.34 | enough cells in well | inactive |
| St6gal2 (beta galactoside alpha 2,6 sialyltransferase 2) | 1 | -0.39 | enough cells in well | inactive |
| Or1n1 (olfactory receptor family 1 subfamily N member 1) | 1 | -0.7 | enough cells in well | inactive |
| Inhbc (inhibin beta-C) | 1 | 0.46 | enough cells in well | inactive |
| Xdh (xanthine dehydrogenase) | 1 | -0.56 | enough cells in well | inactive |
| Folh1 (folate hydrolase 1) | 1 | -0.77 | enough cells in well | inactive |
| Polb (polymerase (DNA directed), beta) | 1 | -0.2 | enough cells in well | inactive |
| Fscn1 (fascin actin-bundling protein 1) | 1 | -0.52 | enough cells in well | inactive |
| Slc28a3 | 1 | -0.03 | enough cells in well | inactive |
| Mlec (malectin) | 1 | -0.27 | enough cells in well | inactive |
| Vsig8 (V-set and immunoglobulin domain containing 8) | 1 | – | fewer than 50 cells per well; well left out of calls | inactive |
| Dhdds (dehydrodolichyl diphosphate synthase) | 1 | -0.21 | enough cells in well | inactive |
| Slc41a1 | 1 | – | fewer than 50 cells per well; well left out of calls | inactive |
| Slc35d1 | 1 | – | fewer than 50 cells per well; well left out of calls | inactive |
| Papss2 (3'-phosphoadenosine 5'-phosphosulfate synthase 2) | 1 | 0.72 | enough cells in well | inactive |
| Gpr55 (G protein-coupled receptor 55) | 1 | -0.46 | enough cells in well | inactive |
| Ube2d3 (ubiquitin-conjugating enzyme E2D 3) | 1 | 3.23 | enough cells in well | active |
| Pgf (placental growth factor) | 1 | 0.12 | enough cells in well | inactive |

Quoted from above (10 entries):
| gene | reagent | Tnf reporter robust z-score | fewer than 50 cells in well | call |
| --- | --- | --- | --- | --- |
| Folh1 (folate hydrolase 1) | 1 | -0.77 | enough cells in well | inactive |
| Polb (polymerase (DNA directed), beta) | 1 | -0.2 | enough cells in well | inactive |
| Fscn1 (fascin actin-bundling protein 1) | 1 | -0.52 | enough cells in well | inactive |
| Slc28a3 | 1 | -0.03 | enough cells in well | inactive |
| Mlec (malectin) | 1 | -0.27 | enough cells in well | inactive |
| Vsig8 (V-set and immunoglobulin domain containing 8) | 1 | – | fewer than 50 cells per well; well left out of calls | inactive |
| Dhdds (dehydrodolichyl diphosphate synthase) | 1 | -0.21 | enough cells in well | inactive |
| Slc41a1 | 1 | – | fewer than 50 cells per well; well left out of calls | inactive |
| Slc35d1 | 1 | – | fewer than 50 cells per well; well left out of calls | inactive |
| Papss2 (3'-phosphoadenosine 5'-phosphosulfate synthase 2) | 1 | 0.72 | enough cells in well | inactive |

The results go on:
| gene | reagent | Tnf reporter robust z-score | fewer than 50 cells in well | call |
| --- | --- | --- | --- | --- |
| Mcm8 | 1 | 3.18 | enough cells in well | active |
| Tmem167 (transmembrane protein 167) | 1 | – | fewer than 50 cells per well; well left out of calls | inactive |
| Thsd1 (thrombospondin, type I, domain 1) | 1 | 0.03 | enough cells in well | inactive |
| Plekhg4 (pleckstrin homology and RhoGEF domain containing G4) | 1 | -0.88 | enough cells in well | inactive |
| Vmn1r215 (vomeronasal 1 receptor 215) | 1 | -0.24 | enough cells in well | inactive |
| Krt72 (keratin 72) | 1 | -0.35 | enough cells in well | inactive |
| Rnd2 (Rho family GTPase 2) | 1 | 0.43 | enough cells in well | inactive |
| Fhl4 (four and a half LIM domains 4) | 1 | -0.32 | enough cells in well | inactive |
| Patl1 (protein associated with topoisomerase II homolog 1 (yeast)) | 1 | -0.44 | enough cells in well | inactive |
| Dab1 (disabled 1) | 1 | -0.59 | enough cells in well | inactive |
| Dab1 (disabled 1) | 2 | 0.85 | enough cells in well | inactive |
| Ccr8 (C-C motif chemokine receptor 8) | 1 | -0.39 | enough cells in well | inactive |
| Hpcal1 (hippocalcin-like 1) | 1 | 0.64 | enough cells in well | inactive |
| T2 (brachyury 2) | 1 | 4.45 | enough cells in well | active |
| Slc4a2 | 1 | – | fewer than 50 cells per well; well left out of calls | inactive |
| Zfp449 (zinc finger protein 449) | 1 | -0.44 | enough cells in well | inactive |
| Alg14 (asparagine-linked glycosylation 14) | 1 | 0.58 | enough cells in well | inactive |
| Tmco4 (transmembrane and coiled-coil domains 4) | 1 | – | fewer than 50 cells per well; well left out of calls | inactive |
| Acacb (acetyl-Coenzyme A carboxylase beta) | 1 | 0.42 | enough cells in well | inactive |
| Pus7l (pseudouridylate synthase 7-like) | 1 | – | fewer than 50 cells per well; well left out of calls | inactive |
| Itk (IL2 inducible T cell kinase) | 1 | -0.57 | enough cells in well | inactive |
| Sval1 (seminal vesicle antigen-like 1) | 1 | 0.74 | enough cells in well | inactive |
| Ypel1 (yippee like 1) | 1 | -0.88 | enough cells in well | inactive |
| Htr1a (5-hydroxytryptamine (serotonin) receptor 1A) | 1 | 0.04 | enough cells in well | inactive |
